# In PubChem BioAssay AID1347423 (Functional Genomics Laboratory (NCATS/FGL), 2020):
# Out of some 52,000 sequences screened, about 210 (0.4%) were called active.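 The calls were made as follows: active = gene whose silencing raises cell survival under the drug, median off-target-corrected z-score across its silencing RNAs 2 or more; inactive = the rest.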 The list shows a part of the results.
# Experiment: Resistance to Poly (ADP-Ribose) Polymerase inhibitor: Gene Identification via Genome-wide siRNA Screen
# Details: mouse BRCA2 R2336H ES cells, olaparib, CellTiter-Glo viability; hits give high values
# Method in brief: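 Genome-wide siRNA screen (3 siRNAs/gene, 20 nM) in mouse ES cells carrying hypomorphic BRCA2 R2336H; olaparib 500 nM added 48 h post-transfection, CellTiter-Glo viability 72 h later. Normalized to plate-median negative control; MAD z-scores, gene median, seed-adjusted.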
row,Sequence,z-score
1,GGUUCCACUAAUCUUUUUATT against Mark3,inactive: 0.417
2,CCCUUUAUAUCGAUUUCGGTT against Spata2,inactive: 0.149
3,GCCUAACUAGCAAUAAAAGTT against 2810403A07Rik,inactive: 0.696
4,CCGGGUAGCUACUGUUAUGTT against Olfr365,inactive: 1.03
5,GGCUUUUGAAUACGAGUUUTT against BC014795,inactive: 0.0449
6,CGAGACUAGAUUCGUGCAGTT against D930048N14Rik,inactive: 0.341
7,GGAGGACGUAUCAUUACAUTT against Ptk9,inactive: -1.24
8,GGUUCCUACGAGUUCACUGTT against LOC434198,inactive: -3.17
9,GGUUGUGCUGUGAACAGAGTT against 2410012H02Rik,inactive: 1.19
10,GGACUGAGAGGGAUGGUAATT against A530016L24Rik,inactive: 1.1
11,GGAGAUAUGACCAUCUCCUTT against Olfr798,inactive: 0.199
12,CGGUCUGUUCCUAAUAAAUTT against Faim2,inactive: -1.06
13,GGGAGAUCAUGAUAGCAGCTT against Cox5b,inactive: 0.374
14,GGCUAUCACCUCCAACACCTT against Fkbp8,inactive: -0.71
15,GGAAGAAUUCGAAAAUGUGTT against 4921525D22Rik,inactive: -0.911
16,GGUUUAGGGCUUGCUAUAUTT against Mal,inactive: -0.436
17,GGUUCCUAAACAUACUUGUTT against 2900010J23Rik,inactive: -1.92
18,GGAAAGUUUUGGCGACUACTT against E330023O18,inactive: -0.972
19,GGUGGUAUCACCUCUAUCATT against 1700019F09Rik,inactive: 0.64
20,GCCUUAAGGUCUCCGUUCUTT against Gse1,inactive: -0.677
21,GGGCCAAAAGCUUAUUAAUTT against Arhgap20,inactive: 0.255
22,GGCCUGGUUCUGCAUAAGCTT against Gas2,inactive: 1.17
23,GGGACAGGACAGUUAGAUGTT against Msc,inactive: 1.3
24,GGGCCUAGUCAAAAUGUUGTT against Fbxo7,inactive: -0.663
25,CGAUCGAUAAAUGUAAUGATT against D930036F22Rik,inactive: 1.54
26,GGAGAUCGUUGUCCAACUCTT against Trpc2,inactive: -0.517
27,GCCGGUUGUAGAAAGGAGUTT against Frs2,inactive: 0.736
28,GGAGCUACGAAGAGGAUCUTT against 0610008N23Rik,inactive: -0.675

# Some of the entries so far, tab-delimited.
row	Sequence	z-score
8	GGUUCCUACGAGUUCACUGTT against LOC434198	inactive: -3.17
11	GGAGAUAUGACCAUCUCCUTT against Olfr798	inactive: 0.199
12	CGGUCUGUUCCUAAUAAAUTT against Faim2	inactive: -1.06
19	GGUGGUAUCACCUCUAUCATT against 1700019F09Rik	inactive: 0.64
27	GCCGGUUGUAGAAAGGAGUTT against Frs2	inactive: 0.736
28	GGAGCUACGAAGAGGAUCUTT against 0610008N23Rik	inactive: -0.675
